Assay results taken from PubChem BioAssay AID200 (DTP/NCI, 2004).
The list does not hold the whole screen: it is rich in T/C values a quarter to a half above the control, in often repeated tests (any T/C) and in doses without a T/C. Other doses and runs of a compound stand elsewhere. T/C gives the treated animals as a percentage of the vehicle group. Some doses have a count of surviving animals in place of a T/C: the source holds a T/C of zero for them, seemingly a mark for toxic or unscored doses. Some survivor counts are full or nearly so, which does not show that the dose was tolerated: survival well below the control is almost never listed, so the zero probably covers shortened survival too. Survivors were counted at the toxicity check, usually on the fifth day, unless a day is given; later deaths do not show. Schedules are NCI's codes, read here as Q, the interval in days (D) or hours (H), X, the number of doses. Some doses were run more than once; their values stand side by side, smallest first. Where survival is the endpoint, the PubChem record calls one and a half times the control and up active, and a quarter to a half above the control has no call in these data; cut-offs in other NCI protocols can differ.

Test system: B6C3F1 mice, B16 melanoma ip, median survival T/C
Test: NCI In Vivo Anticancer Drug Screen. Data for tumor model B16 Melanoma (intraperitoneal) in B6C3F1 mice
Settings: T/C endpoint: median survival time, higher T/C = longer survival
How it was run: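 Tumor-bearing mice received test compound; a separate group got vehicle only. Survival was then compared, with results reported as treated over control.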

[1] = dose: 200.0 mg/kg/injection, schedule: Q01DX009 (ip), vehicle: suspension in saline
[2] = dose: 400.0 mg/kg/injection, schedule: Q01DX009 (ip), vehicle: suspension in saline
[3] = dose: 10.0 mg/kg/injection, schedule: Q01DX009 (ip), vehicle: saline
[4] = dose: 100.0 mg/kg/injection, schedule: Q01DX009 (ip), vehicle: saline
[5] = dose: 200.0 mg/kg/injection, schedule: Q01DX009 (ip), vehicle: saline
[6] = dose: 50.0 mg/kg/injection, schedule: Q01DX009 (ip), vehicle: saline with Tween-80
[7] = dose: 100.0 mg/kg/injection, schedule: Q01DX009 (ip), vehicle: saline with Tween-80
[8] = dose: 200.0 mg/kg/injection, schedule: Q01DX009 (ip), vehicle: saline with Tween-80
[9] = dose: 400.0 mg/kg/injection, schedule: Q01DX009 (ip), vehicle: saline with Tween-80
[10] = dose: 25.0 mg/kg/injection, schedule: Q01DX009 (ip), vehicle: saline with Tween-80
[11] = dose: 50.0 mg/kg/injection, schedule: Q01DX009 (ip), vehicle: Klucel (hydroxypropylcellulose) (HPC)
[12] = dose: 6.0 mg/kg/injection, schedule: Q01DX009 (ip), vehicle: saline
[13] = dose: 100.0 mg/kg/injection, schedule: Q01DX009 (ip), vehicle: Klucel (hydroxypropylcellulose) (HPC)
[14] = dose: 200.0 mg/kg/injection, schedule: Q01DX009 (ip), vehicle: Klucel (hydroxypropylcellulose) (HPC)
[15] = dose: 50.0 mg/kg/injection, schedule: Q01DX009 (ip), vehicle: saline

Which survivor count [1] does the source give for `Nc1nc(F)nc2c1ncn2C1OC(COP(=O)(O)O)C(O)C1O` (stereo unspecified) here?
The survivor count was 9 of 10.

What about the survivor count [2] of the same compound?
Its survivor count is 7 of 10.

Which results are given for `CN(C)c1ccc(C(=C2C=CC(=[N+](C)C)C=C2)c2ccc(N(C)C)cc2)cc1` (tested in a mixture with another compound)?
survivor count (dose: 5.0 mg/kg/injection, schedule: Q01DX009 (ip), vehicle: saline): 1 of 10; survivor count [3]: 0 of 10

What does the source list for `S=c1c2[nH]cnc2ncn1CCSC1=NC=NC2=NC=NC21` (stereo unspecified)?
survivor count [4]: 9 of 10; survivor count [5]: 9 of 10

Which T/C [6] does the source give for `ClC1(Cl)Cc2ccccc21` here?
Its T/C is 146 % of control.

And the T/C [7]?
Its T/C is 134 % of control.

What about the survivor count [8] of the same compound?
The survivor count was 9 of 10.

What about the survivor count [9] of the same compound?
Its survivor count is 3 of 10.

For `CC(=O)NO`, which survivor count (dose: 800.0 mg/kg/injection, schedule: Q01DX009 (ip), vehicle: water) is on record?
The survivor count was 10 of 10.

Which T/C [10] does the source give for `CCCCNP1(NCCCC)=NP(NCCCC)(NCCCC)=NP(NCCCC)(NCCCC)=NP(NCCCC)(NCCCC)=N1` here?
The T/C was 128 % of control.

What about the T/C [6] of the same compound?
The T/C was 142 % of control.

What about the survivor count [6] of the same compound?
The survivor count was 10 of 10.

What about the survivor count [7] of the same compound?
The survivor count was 1 of 10, 5 of 10, 10 of 10.

What about the survivor count [8] of the same compound?
Its survivor count is 2 of 10.

With `CCCCc1ccc(-n2c(C)c(COC(=O)NC)c(COC(=O)NC)c2C)cc1` as the compound, how does the T/C (dose: 3.12 mg/kg/injection, schedule: Q01DX009 (ip), vehicle: Klucel (hydroxypropylcellulose) (HPC)) read?
Its T/C is 145 % of control.

And the survivor count [11]?
Its survivor count is 10 of 10.

For `Nc1ccc2ccc(N)cc2c1`, which survivor count [9] is on record?
The survivor count was 6 of 10.

What does the source list for `COC12C(COC(=O)NCCO)C3=C(C(=O)C(C)=C(N)C3=O)N1CC1NC12` (stereo unspecified)?
T/C (dose: 6.25 mg/kg/injection, schedule: Q01DX009 (ip), vehicle: Klucel (hydroxypropylcellulose) (HPC)): 147 % of control; survivor count [11]: 10 of 10

What does the source list for `CCCCCCCCSC1=C(Cl)C(=O)C(OC)=C(OC)C1=O`?
survivor count (dose: 12.5 mg/kg/injection, schedule: Q01DX009 (ip), vehicle: saline with Tween-80): 10 of 10; survivor count [10]: 9 of 10; survivor count [6]: 5 of 10

Which survivor count (dose: 10.0 mg/kg/injection, schedule: Q01DX009 (ip), vehicle: saline with Tween-80) does the source give for `CCOC(=O)Nc1cc2c(c(N)n1)N=C(c1ccccc1)CN2` here?
The survivor count was 1 of 10.

What about the survivor count (dose: 20.0 mg/kg/injection, schedule: Q01DX009 (ip), vehicle: saline with Tween-80) of the same compound?
Its survivor count is 0 of 10.

Which T/C (dose: 0.75 mg/kg/injection, schedule: Q01DX009 (ip), vehicle: saline) does the source give for `[Cl][Pt+2][Cl].[NH-]C1CCC1.[NH2-]` here?
The T/C was 127 % of control.

And the T/C (dose: 3.0 mg/kg/injection, schedule: Q01DX009 (ip), vehicle: saline)?
The T/C was 142 % of control.

What about the T/C [12] of the same compound?
The T/C was 136 % of control.

And the survivor count [12]?
The survivor count was 10 of 10.

What about the survivor count (dose: 12.0 mg/kg/injection, schedule: Q01DX009 (ip), vehicle: saline) of the same compound?
The survivor count was 10 of 10.

What about the survivor count (dose: 24.0 mg/kg/injection, schedule: Q01DX009 (ip), vehicle: saline) of the same compound?
The survivor count was 10 of 10.

Which survivor count [13] does the source give for `[N-]=[N+]=CC(=O)CCC(NC(=O)OCc1ccccc1)C(=O)OCc1ccccc1` (stereo unspecified) here?
The survivor count was 10 of 10.

What about the survivor count [14] of the same compound?
Its survivor count is 8 of 10.

And the survivor count (dose: 400.0 mg/kg/injection, schedule: Q01DX009 (ip), vehicle: Klucel (hydroxypropylcellulose) (HPC))?
Its survivor count is 6 of 10.

What does the source list for `C1OC1C1CO1` (stereo unspecified)?
T/C [3]: 127 % of control; survivor count (dose: 20.0 mg/kg/injection, schedule: Q01DX009 (ip), vehicle: saline): 2 of 10; survivor count (dose: 40.0 mg/kg/injection, schedule: Q01DX009 (ip), vehicle: saline): 0 of 10 and 5 of 10

How did the survivor count (dose: 24.0 mg/kg/injection, schedule: Q01DX009 (ip), vehicle: water) turn out when `COc1cccc2c1C(=O)c1c(O)c3c(c(O)c1C2=O)C[C@H](O)C[C@@H]3OC1CC(N)C(O)C(C)O1` (stereo partly specified) was run?
The survivor count was 10 of 10.

For `C[C@@H]1CN(C(=O)CCOS(C)(=O)=O)[C@@H](C)CN1C(=O)CCOS(C)(=O)=O`, which T/C (dose: 25.0 mg/kg/injection, schedule: Q01DX009 (ip), vehicle: saline) is on record?
Its T/C is 126 % of control.

What about the T/C [6] of the same compound?
The T/C was 134 % of control.

What about the T/C [15] of the same compound?
The T/C was 131 % of control.

What about the T/C [7] of the same compound?
The T/C was 142 % of control.

What about the T/C [4] of the same compound?
Its T/C is 144 % of control.

What about the T/C [8] of the same compound?
The T/C was 136 % of control.

`Oc1ccc2ccccc2c1N=Nc1ccc(F)cc1` was tested. Which T/C [7] did it give?
The T/C was 129 % of control.

`CC(=O)OC1=NC(C)c2c1cc(OC(C)=O)[nH]c2=O` (stereo unspecified) was tested. Which survivor count [13] did it give?
The survivor count was 2 of 10.

What about the survivor count [14] of the same compound?
The survivor count was 0 of 10 and 1 of 10.

With `NC(N)=NC(N)=Nc1ccc(-c2ccc(N=C(N)N=C(N)N)cc2)cc1` as the compound, how does the survivor count [10] read?
Its survivor count is 10 of 10.

Which survivor count [10] does the source give for `C[CH2][Ge]([CH2]C)[CH2]C.C[CH2][Ge]([CH2]C)[CH2]C.C[CH2][Ge]([CH2]C)[O][Ge]([CH2]C)[CH2]C` here?
The survivor count was 10 of 10.

What does the source list for `CCCNC1=C(C)C(=O)C2=C(C1=O)[C@H](COC(N)=O)[C@]1(OC)[C@@H]3N[C@@H]3CN21`?
T/C (dose: 0.78 mg/kg/injection, schedule: Q01DX009 (ip), vehicle: saline): 134 % of control; survivor count (dose: 6.25 mg/kg/injection, schedule: Q01DX009 (ip), vehicle: saline): 10 of 10; T/C (dose: 12.5 mg/kg/injection, schedule: Q01DX009 (ip), vehicle: Klucel (hydroxypropylcellulose) (HPC)): 133 % of control; survivor count (dose: 12.5 mg/kg/injection, schedule: Q01DX009 (ip), vehicle: saline): 10 of 10

How did the survivor count [14] turn out when `O=C(NC(Cc1ccccc1)C(=O)O)OCc1ccccc1` (stereo unspecified) was run?
The survivor count was 6 of 10.

What does the source list for `CCC(/C=C/C1OC(=O)C=CC1C)=C\C(C)C/C=C/C(C)=C/C(C)C(=O)C(C)C(O)C(C)C/C(C)=C/C(=O)O` (stereo unspecified)?
T/C (dose: 6.25 micrograms/kg/injection, schedule: Q01DX009 (ip), vehicle: other): 145 % of control; T/C (dose: 6.25 micrograms/kg/injection, schedule: Q01DX009 (ip), vehicle: saline + alcohol): 149 % of control; T/C (dose: 25.0 micrograms/kg/injection, schedule: Q01DX009 (ip), vehicle: other): 145 % of control; survivor count (dose: 25.0 micrograms/kg/injection, schedule: Q01DX009 (ip), vehicle: saline + alcohol): 10 of 10; survivor count (dose: 50.0 micrograms/kg/injection, schedule: Q01DX009 (ip), vehicle: other): 10 of 10; survivor count (dose: 50.0 micrograms/kg/injection, schedule: Q01DX009 (ip), vehicle: saline + alcohol): 9 of 10 and 10 of 10; T/C (dose: 50.0 micrograms/kg/injection, schedule: Q01DX009 (sc), vehicle: other): 126 % of control; survivor count (dose: 100.0 micrograms/kg/injection, schedule: Q01DX009 (ip), vehicle: other): 8 of 10; survivor count (dose: 100.0 micrograms/kg/injection, schedule: Q01DX009 (ip), vehicle: saline + alcohol): 9 of 10 and 10 of 10; T/C (dose: 100.0 micrograms/kg/injection, schedule: Q01DX009 (sc), vehicle: other): 135 % of control; survivor count (dose: 200.0 micrograms/kg/injection, schedule: Q01DX009 (ip), vehicle: saline + alcohol): 1 of 10; T/C (dose: 200.0 micrograms/kg/injection, schedule: Q01DX009 (sc), vehicle: other): 135 % of control

How did the survivor count [8] turn out when `CC1(C)COCN1COC1CCCCC1` was run?
Its survivor count is 2 of 10.

And the survivor count [5]?
Its survivor count is 8 of 10.

And the survivor count [9]?
Its survivor count is 0 of 10.

`NC(=S)N/N=C/c1ccc(O)cn1` was tested. Which survivor count [1] did it give?
The survivor count was 10 of 10.

What about the survivor count [2] of the same compound?
Its survivor count is 10 of 10.

`CCCCOCN(COCCCC)C12CC3CC(CC(C3)C1)C2` was tested. Which survivor count [8] did it give?
Its survivor count is 7 of 10.

What about the survivor count [9] of the same compound?
Its survivor count is 0 of 10.

What does the source list for `CN(Cc1cnc2nc(N)nc(N)c2n1)c1c(Cl)cc(C(=O)NC(CCC(=O)O)C(=O)O)cc1Cl` (stereo unspecified)?
survivor count [15]: 10 of 10; survivor count [4]: 10 of 10
